Reference: PMC8605242
These are yes or no findings as the source states them, for the method shown. Binding seen in cells or lysates may run through a third protein. Binding calls can cover weak binding; strength is not graded here.

Amino acid sequences for entries named in this document (tags omitted). A change or cut given only in a name is not applied to a line headed by its entry.
UniProt I3L1U7: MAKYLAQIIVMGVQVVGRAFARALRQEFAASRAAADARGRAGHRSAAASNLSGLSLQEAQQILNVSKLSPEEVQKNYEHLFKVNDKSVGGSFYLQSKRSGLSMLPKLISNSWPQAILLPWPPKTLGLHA

Target: hexahistidine tagged Magmas-2 (human) (UniProt I3L1U7)
Assay: pull-down; hexahistidine tagged Magmas variants on Ni-NTA beads; lysate of 2 mg HEK293T mitochondria in 25 mM HEPES-KOH pH 7.5, 80 mM KCl, 5 mM EDTA, 20 mM imidazole, 10% glycerol, 1 mM PMSF, 0.5% NP-40; 12 h, 4 °C; washes with 0.25% NP-40; immunoblot; only the target purified

binding: binds
B1: Tim23 (human) (protein, UniProt O14925 1-209)
chain: MEGGGGSGNKTTGGLAGFFGAGGAGYSHADLAGVPLTGMNPLSPYLNVDPRYLVQDTDEFILPTGANKTRGRFELAFFTIGGCCMTGAAFGAMNGLRLGLKETQNMAWSKPRNVQILNMVTRQGALWANTLGSLALLYSAFGVIIEKTRGAEDDLNTVAAGTMTGMLYKCTGGLRGIARGGLTGLTLTSLYALYNNWEHMKGSLLQQSL
